The list shows a part of the results. Further columns of the screen follow, without active or inactive calls. The list favours compounds with an active or inconclusive main result.

The assay in a line: blockers of oleate-driven lipid droplets in liver cells – imaging, AML12 mouse hepatocytes, single concentration, high-content, confirmation (AID 463183).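 Further: cells counted after overnight compound exposure.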 Particulars: BODIPY lipid droplet imaging, measured here: cell count, cytotoxicity, at 5.2 µM.
Consider `Nc1cc(Cl)c2nonc2c1[N+](=O)[O-]`, for which the cell count was found to be 1400 cells. As for `CCc1ccc(-n2c(O)c(C(C)=O)c(=O)[nH]c2=O)cc1` (tested in a mixture with another compound), the cell count was determined as 1650 cells. Then `CC(C)OCCCNC(=O)c1c(N)n(CC2CCCO2)c2nc3ccccc3nc12` (stereo unspecified), with 1620 cells; and `CC1CCC/C=C/C2CC(O)CC2C(O)/C=C/C(=O)O1` (stereo unspecified), with 206 cells. Turning to `CC1(C)CN=C(Nc2ccc(F)c(Cl)c2)S1`, the cell count was 1480 cells. On to `COC(=O)C1CN(C#N)N(c2ccc(Cl)cc2)C12c1ccccc1-c1ccccc12` (stereo unspecified), for which the cell count was found to be 37.5 cells.

Source of the values: PubChem BioAssay AID463183 (Sanford-Burnham Center for Chemical Genomics, 2010).
